Measured values reported in WO2021090922A1.
These are yes or no findings as the source states them, for the method shown. Some entries that bind do so weakly or less than the wild type.

Protein sequences, listed by entry. Tags and fused reporters are not part of them. Residues count along the entry.
UniProt P04114, residues 28-4563: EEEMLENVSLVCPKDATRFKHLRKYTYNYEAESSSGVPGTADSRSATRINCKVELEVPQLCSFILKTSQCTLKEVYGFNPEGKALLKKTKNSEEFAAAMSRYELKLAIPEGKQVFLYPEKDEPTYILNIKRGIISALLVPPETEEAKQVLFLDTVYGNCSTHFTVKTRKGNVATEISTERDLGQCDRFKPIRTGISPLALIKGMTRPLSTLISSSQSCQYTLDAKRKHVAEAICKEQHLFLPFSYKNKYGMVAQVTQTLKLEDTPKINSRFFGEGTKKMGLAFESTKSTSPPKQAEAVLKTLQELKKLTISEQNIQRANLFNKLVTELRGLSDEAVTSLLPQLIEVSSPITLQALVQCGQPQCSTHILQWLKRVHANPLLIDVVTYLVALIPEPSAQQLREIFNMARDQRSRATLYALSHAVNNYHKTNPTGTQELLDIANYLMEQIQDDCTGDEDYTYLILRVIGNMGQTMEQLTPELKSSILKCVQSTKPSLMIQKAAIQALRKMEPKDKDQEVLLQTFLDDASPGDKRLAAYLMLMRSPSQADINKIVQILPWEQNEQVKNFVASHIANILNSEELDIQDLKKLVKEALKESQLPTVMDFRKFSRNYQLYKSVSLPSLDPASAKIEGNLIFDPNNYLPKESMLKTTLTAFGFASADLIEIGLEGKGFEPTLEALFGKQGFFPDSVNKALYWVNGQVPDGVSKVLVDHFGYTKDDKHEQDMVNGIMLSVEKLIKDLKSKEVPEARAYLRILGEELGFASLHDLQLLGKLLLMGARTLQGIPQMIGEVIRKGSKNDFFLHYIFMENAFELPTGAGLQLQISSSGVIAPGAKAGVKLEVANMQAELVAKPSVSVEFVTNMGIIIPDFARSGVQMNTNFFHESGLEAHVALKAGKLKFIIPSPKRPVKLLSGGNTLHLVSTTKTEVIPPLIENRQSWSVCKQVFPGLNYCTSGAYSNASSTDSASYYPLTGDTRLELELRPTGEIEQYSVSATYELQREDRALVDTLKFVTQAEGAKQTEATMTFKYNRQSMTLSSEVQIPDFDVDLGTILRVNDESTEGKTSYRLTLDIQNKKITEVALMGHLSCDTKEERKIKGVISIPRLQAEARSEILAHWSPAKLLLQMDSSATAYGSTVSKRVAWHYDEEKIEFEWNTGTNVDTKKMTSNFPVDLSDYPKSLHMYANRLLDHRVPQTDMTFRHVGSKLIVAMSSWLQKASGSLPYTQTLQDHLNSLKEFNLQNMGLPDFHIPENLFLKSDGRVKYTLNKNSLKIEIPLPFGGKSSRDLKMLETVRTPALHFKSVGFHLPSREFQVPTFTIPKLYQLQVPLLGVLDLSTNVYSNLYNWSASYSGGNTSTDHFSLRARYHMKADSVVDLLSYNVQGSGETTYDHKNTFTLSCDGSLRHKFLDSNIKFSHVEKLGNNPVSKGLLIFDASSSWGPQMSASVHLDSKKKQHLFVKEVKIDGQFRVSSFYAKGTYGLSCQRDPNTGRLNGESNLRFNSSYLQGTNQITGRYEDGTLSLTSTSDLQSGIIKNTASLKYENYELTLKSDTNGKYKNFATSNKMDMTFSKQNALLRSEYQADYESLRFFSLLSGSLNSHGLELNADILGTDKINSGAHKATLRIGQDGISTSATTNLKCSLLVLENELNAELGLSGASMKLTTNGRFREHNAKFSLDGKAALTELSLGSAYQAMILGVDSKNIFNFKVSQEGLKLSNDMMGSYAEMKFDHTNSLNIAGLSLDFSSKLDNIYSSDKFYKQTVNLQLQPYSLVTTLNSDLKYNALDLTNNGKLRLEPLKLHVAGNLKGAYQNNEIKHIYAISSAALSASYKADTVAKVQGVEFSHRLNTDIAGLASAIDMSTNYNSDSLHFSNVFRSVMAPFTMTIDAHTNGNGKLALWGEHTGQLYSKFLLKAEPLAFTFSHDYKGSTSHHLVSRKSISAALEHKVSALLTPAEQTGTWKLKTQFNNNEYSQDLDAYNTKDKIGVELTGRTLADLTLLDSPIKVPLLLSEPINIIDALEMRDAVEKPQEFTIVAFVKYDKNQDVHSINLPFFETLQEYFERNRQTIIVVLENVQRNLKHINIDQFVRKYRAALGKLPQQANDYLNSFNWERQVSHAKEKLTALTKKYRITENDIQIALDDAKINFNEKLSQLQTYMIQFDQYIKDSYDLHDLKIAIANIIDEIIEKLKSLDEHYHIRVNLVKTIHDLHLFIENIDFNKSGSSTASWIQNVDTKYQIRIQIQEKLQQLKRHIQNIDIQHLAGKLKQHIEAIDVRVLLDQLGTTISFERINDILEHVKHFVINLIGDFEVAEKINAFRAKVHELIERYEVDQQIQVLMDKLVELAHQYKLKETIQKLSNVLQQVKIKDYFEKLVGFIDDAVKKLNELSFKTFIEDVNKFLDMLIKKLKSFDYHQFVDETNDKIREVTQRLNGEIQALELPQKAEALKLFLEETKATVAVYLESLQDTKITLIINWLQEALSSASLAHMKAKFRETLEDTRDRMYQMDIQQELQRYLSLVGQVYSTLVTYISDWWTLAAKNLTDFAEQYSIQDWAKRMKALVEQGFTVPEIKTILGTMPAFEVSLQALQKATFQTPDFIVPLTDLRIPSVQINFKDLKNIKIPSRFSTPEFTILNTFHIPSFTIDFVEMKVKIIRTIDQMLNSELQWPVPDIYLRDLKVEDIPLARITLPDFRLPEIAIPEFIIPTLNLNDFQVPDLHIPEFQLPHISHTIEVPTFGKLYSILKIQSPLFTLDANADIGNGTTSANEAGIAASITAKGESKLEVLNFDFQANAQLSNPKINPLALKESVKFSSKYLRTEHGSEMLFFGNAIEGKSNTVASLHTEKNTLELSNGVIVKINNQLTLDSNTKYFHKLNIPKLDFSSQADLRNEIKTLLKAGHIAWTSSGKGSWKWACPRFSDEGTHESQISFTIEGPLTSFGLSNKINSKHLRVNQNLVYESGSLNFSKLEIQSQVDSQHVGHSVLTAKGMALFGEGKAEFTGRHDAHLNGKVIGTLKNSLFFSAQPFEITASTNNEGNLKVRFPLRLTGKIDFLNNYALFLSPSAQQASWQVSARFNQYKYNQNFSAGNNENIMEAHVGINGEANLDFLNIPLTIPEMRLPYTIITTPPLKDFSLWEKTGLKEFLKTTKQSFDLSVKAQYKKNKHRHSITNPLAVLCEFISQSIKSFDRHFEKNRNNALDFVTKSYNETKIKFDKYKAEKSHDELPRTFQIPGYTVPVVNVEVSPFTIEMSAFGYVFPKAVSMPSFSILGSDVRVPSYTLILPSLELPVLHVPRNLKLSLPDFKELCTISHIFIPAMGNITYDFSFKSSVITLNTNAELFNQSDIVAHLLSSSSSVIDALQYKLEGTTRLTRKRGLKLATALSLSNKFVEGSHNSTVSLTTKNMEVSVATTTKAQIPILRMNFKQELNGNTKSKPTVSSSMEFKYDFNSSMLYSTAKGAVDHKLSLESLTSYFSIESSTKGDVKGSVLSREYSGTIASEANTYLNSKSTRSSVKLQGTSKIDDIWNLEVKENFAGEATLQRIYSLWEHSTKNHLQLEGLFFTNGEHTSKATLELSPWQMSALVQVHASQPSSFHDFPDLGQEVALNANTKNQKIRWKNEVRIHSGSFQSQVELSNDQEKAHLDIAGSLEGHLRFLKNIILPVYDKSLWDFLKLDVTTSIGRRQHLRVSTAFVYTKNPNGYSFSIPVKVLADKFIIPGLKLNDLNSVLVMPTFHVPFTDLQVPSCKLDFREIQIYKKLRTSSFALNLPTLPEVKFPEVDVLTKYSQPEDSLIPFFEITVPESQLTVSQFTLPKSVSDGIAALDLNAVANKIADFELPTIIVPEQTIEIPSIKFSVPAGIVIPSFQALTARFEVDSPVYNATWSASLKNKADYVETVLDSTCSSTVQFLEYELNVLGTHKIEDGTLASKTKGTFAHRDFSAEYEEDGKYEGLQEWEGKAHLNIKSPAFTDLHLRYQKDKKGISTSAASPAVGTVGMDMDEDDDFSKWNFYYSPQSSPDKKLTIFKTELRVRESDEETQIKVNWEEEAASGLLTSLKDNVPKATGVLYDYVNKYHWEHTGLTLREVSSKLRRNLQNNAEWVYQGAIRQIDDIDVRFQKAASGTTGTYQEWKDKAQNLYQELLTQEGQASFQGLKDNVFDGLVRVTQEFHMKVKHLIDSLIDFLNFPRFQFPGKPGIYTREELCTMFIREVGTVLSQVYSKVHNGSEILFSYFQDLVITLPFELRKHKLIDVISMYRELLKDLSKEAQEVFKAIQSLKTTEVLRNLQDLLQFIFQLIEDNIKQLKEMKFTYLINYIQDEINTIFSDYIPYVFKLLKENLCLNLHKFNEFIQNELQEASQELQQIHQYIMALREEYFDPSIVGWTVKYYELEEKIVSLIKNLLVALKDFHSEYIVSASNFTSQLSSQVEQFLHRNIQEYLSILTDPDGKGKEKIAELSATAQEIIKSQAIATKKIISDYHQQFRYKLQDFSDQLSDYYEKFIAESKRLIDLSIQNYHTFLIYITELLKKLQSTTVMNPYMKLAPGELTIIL

Tests used:
oxidized LDL [1] = target: oxidized LDL (UniProt P04114); test: lateral flow sandwich on sera of hyperlipidemic patients (oxidized LDL in serum); scFv test spot, QuartzDot-labeled CTLD14
oxidized LDL [2] = target: oxidized LDL (UniProt P04114); test: lateral flow (immunochromatography) sandwich: anti-LDL scFv on the test spot captures oxidized LDL bound to QuartzDot-labeled CTLD14
oxidized LDL [3] = target: oxidized LDL (UniProt P04114); test: lateral flow sandwich in whole blood; full strip with blood cell removal filter; scFv test spot at different concentrations
oxidized LDL [4] = target: oxidized LDL (UniProt P04114); test: lateral flow sandwich; oxidized LDL added to PBS with 0.5% BSA or to diluted serum; scFv test spot; Typhoon fluorescence

Measured: binding

B1: anti-LDL single-chain antibody (scFv)
scFv: GAGTPVTAPLAGTIWKVLASEGQTVAAGEVLLILEAMKMETEIRAAQAGTVRGIAVKAGDAVAVGDTLMTLAMAQVQLQQSGPGLVKPSQTLSLTCAISGDSVSSRDAAWNWIRQSPSRGLEWLGRTYYRSEWYTDYAVSLESRLTVNPDTSRNQFSLQLNSVTPEDTAVYLCARGSSWGHAPAFFDYWGQGTLVTVSSGGGGSGGGGSGGGGSDIQMTQSPSSLSASVEDRVAITCRASQSVSTYVAWYQQKPGKAPKLLISQASSLENGVPSRFSGSGSGTDFTLTISSLQPEDFATYYCQQYTTYPYTFGQGTKLEIKR
binds: all assays above
